One molecule from article PMC10835844 can be followed below.

By UniProt entry, the sequences of proteins in these tests, tags left out.
UniProt Q14258: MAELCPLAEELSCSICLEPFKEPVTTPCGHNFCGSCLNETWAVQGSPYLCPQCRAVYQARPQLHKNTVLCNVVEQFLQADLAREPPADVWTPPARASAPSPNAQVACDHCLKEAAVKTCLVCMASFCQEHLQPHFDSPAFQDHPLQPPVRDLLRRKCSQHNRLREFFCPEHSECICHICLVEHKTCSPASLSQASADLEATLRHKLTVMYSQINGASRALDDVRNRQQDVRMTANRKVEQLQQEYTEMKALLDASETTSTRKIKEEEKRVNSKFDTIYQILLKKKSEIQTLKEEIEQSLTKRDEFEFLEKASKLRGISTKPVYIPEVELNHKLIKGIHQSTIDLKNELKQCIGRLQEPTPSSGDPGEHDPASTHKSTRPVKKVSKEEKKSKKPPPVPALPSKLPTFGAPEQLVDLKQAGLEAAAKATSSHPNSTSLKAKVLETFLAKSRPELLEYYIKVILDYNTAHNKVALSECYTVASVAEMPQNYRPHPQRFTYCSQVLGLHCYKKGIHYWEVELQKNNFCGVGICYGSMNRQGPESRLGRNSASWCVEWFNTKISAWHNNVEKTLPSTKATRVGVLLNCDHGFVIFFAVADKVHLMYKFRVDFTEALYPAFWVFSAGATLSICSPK

No constants are given. Whether binding was seen depends on the method and setting. In cells and extracts the contact can be indirect. A yes stands for co-enrichment or nearness to the bait. Other partners may have been found.

The target of this assay is Tripartite motif 25 (TRIM25), endogenous (human (endogenous in LN229 and U251)) (UniProt Q14258). The assay can be described thus: affinity purification with mass spectrometry; immunoprecipitation with a TRIM25-specific antibody on protein A/G magnetic beads from LN229 and U251 lysates (IP lysis buffer, overnight at 4 °C), LC-MS/MS; proteins found in the IgG groups excluded.

B1: NONO (Non-POU domain containing octamer binding), endogenous (protein, UniProt Q15233 1-471)
chain: MQSNKTFNLEKQNHTPRKHHQHHHQQQHHQQQQQQPPPPPIPANGQQASSQNEGLTIDLKNFRKPGEKTFTQRSRLFVGNLPPDITEEEMRKLFEKYGKAGEVFIHKDKGFGFIRLETRTLAEIAKVELDNMPLRGKQLRVRFACHSASLTVRNLPQYVSNELLEEAFSVFGQVERAVVIVDDRGRPSGKGIVEFSGKPAARKALDRCSEGSFLLTTFPRPVTVEPMDQLDDEEGLPEKLVIKNQQFHKEREQPPRFAQPGSFEYEYAMRWKALIEMEKQQQDQVDRNIKEAREKLEMEMEAARHEHQVMLMRQDLMRRQEELRRMEELHNQEVQKRKQLELRQEEERRRREEEMRRQQEEMMRRQQEGFKGTFPDAREQEIRMGQMAMGGAMGINNRGAMPPAPVPAGTPAPPGPATMMPDGTLGLTPPTTERFGQAATMEGIGAIGGTPPAFNRAAPGAEFAPNKRRRY
Regarding B1, the binding result was “binds”.
